# Measurements published in patent US20220177911.
# A weaker result is weaker than the reference pair of the same experiment. Protein sequences can lack the tags named with them.
# Legend:
# Experiment in all cases: activity in cells
# Conditions in all cases: minimal activation as monomer, CHO-K1; protein in cells; protein details: VP48, mCherry; only the site is given
# [1] = test system: T1, 37ZF R2A R11A R39A R67A-VP48 (monomer) (synthetic)
# T1 sequence: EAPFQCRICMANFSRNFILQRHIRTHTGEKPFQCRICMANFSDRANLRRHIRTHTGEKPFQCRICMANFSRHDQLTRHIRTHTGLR
# [2] = test system: T2, BCRZF R39A-VP48 (monomer) (synthetic)
# T2 sequence: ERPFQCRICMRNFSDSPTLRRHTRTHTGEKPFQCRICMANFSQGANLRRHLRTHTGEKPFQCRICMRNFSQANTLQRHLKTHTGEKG
# [3] = test system: T3, 42ZF R2A R39A R67A-VP48 (monomer) (synthetic)
# T3 sequence: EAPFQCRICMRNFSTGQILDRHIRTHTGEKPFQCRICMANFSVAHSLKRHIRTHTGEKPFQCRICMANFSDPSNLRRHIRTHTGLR
sequence,measurement,setting,value
TGAGGACGTGTTGAGGACGTGT (double strand) [37bs_37bs],activity on this sequence,[1],less active
GCAGAAGCCGCAGAAGCC (double strand) [BCRbs_BCRbs],activity on this sequence,[2],less active
GACGCTGCTGACGCTGCT (double strand) [42bs_42bs],activity on this sequence,[3],less active
